## Assay results

Data taken from PubChem BioAssay AID1159506, deposited by NCATS (2015).

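Luminescence from an EWS-FLI1 target-promoter (NR0B1) reporter, set against a CMV-promoter reporter, two days after silencing single genes in TC32 Ewing sarcoma cells.
Each siRNA was applied at 20 nM.
A z-score of the log NR0B1-over-CMV signal, less the median of siRNAs with the same seed; more negative means a stronger specific loss of the NR0B1 reporter.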

This is part of the screen; most of the strongest results are not listed here.
Sequences are the guide (antisense) strand, without overhang.

Result for UUCUCAUCAAAUGACUUGU against STARD7 was seed-corrected z-score -0.08002.
Result for UCCGGAAUCAUGUCCAACC against MYOF was seed-corrected z-score 0.4584.
Result for UUGGAUUCCACAUUCAGUG against TMOD1 was seed-corrected z-score 1.925.
Result for UACAUGUCCUUUACGGCUG against USH1G was seed-corrected z-score -0.2965.
Result for UUGGAAUUGUCCAUGCUCU against GPS2 was seed-corrected z-score 0.06831.
Result for UGAAAGAUGAGUUGCAGGC against S100A1 was seed-corrected z-score -1.519.
Result for UUCGUAACGUGUAACCUCG against DOCK1 was seed-corrected z-score 1.148.
Result for UCAGCGAACAUUCUACUUC against MRPL51 was seed-corrected z-score 0.3739.
Result for AAUGGAUUAAAACCCUUCC against TMEM126B was seed-corrected z-score -0.1809.
Result for UGAUUGAUUAAAGCUAACG against MDK was seed-corrected z-score -0.2566.
Result for UUCCUUUUUCAGUCCAACC against CD69 was seed-corrected z-score -0.01736.
Result for UUGGAUAGAGGGUCUCUCG against ATP6V0D2 was seed-corrected z-score -0.07666.
Result for UUCGGUUACACGUUCUUCC against RDX was seed-corrected z-score -0.3513.
Result for UCUUUUGCAACUGCCGCUU against EP400NL was seed-corrected z-score -1.409.
Result for UUCCCGAUCAAAGAUACAC against LAMC2 was seed-corrected z-score 0.1586.
Result for UAAUACCCAAGUAUUGGUG against FAIM was seed-corrected z-score 0.06869.
Result for UAUAGUGAGGAAUGGACCC against KRTAP5-7 was seed-corrected z-score 0.3657.
Result for UCUGGAGCCUAUACCUCGC against ZGPAT was seed-corrected z-score -0.1686.
Result for UCCGUAAUCAAUCUAGCCU against ANKRD33 was seed-corrected z-score -0.5411.
Result for UUGUAGUCAGACAAAGUAC against RPS27A was seed-corrected z-score -0.401.
Result for UUCGGUUCCUCUGAGGCUC against WIPF1 was seed-corrected z-score 2.086.
Result for AAGGGUGUAGCAAAUGCAG against COX7C was seed-corrected z-score -0.4899.
Result for UGAAAUUGAUGUUAUGUAC against ZBTB24 was seed-corrected z-score 0.2519.
Result for UGGUGAUUUGGCAUCACCC against PRAP1 was seed-corrected z-score 0.1471.
Result for UGUUCUUGCACCUUGCUUG against KEL was seed-corrected z-score -0.2009.
Result for UGCCUUUAGACGUGGAACC against LOC441488 was seed-corrected z-score -0.4251.
Result for UCAUUGUCUAGGAAAUUGC against SPOCK1 was seed-corrected z-score -1.023.
Result for UGAGUAGAAAGUAUCUUGC against DTHD1 was seed-corrected z-score 0.03714.
Result for UUUCUGAUCAAAUUGCAGG against FYCO1 was seed-corrected z-score 0.5037.
Result for UCAAUUUCUAGGUGAGGUC against TNF was seed-corrected z-score -1.086.
Result for AUUGGGAUACCAUAUCUGG against ZNF227 was seed-corrected z-score 0.7236.
Result for UUUGUUCACAUCCCAGUGU against ZP1 was seed-corrected z-score 0.5976.
Result for UCCCUUGUCAGAGUUGUAC against TOPORS was seed-corrected z-score -0.03909.
Result for UGAGAUACUGGGCUUUAGC against CROT was seed-corrected z-score -0.4766.

Once more, the final 3:

* UUUGUUCACAUCCCAGUGU against ZP1 : seed-corrected z-score 0.5976
* UCCCUUGUCAGAGUUGUAC against TOPORS : seed-corrected z-score -0.03909
* UGAGAUACUGGGCUUUAGC against CROT : seed-corrected z-score -0.4766